Measured values from patent EP4695300A2 (dated 2026).
Results are given in words; binding and its absence hold for the method and conditions named. In cells and extracts the contact can be indirect. Some binding calls cover weakened binding; strength is not graded here. Sequences can lack the tags named with a protein.

Sequences of proteins named here, by UniProt entry; tags and fusion partners are left off.
UniProt P05556: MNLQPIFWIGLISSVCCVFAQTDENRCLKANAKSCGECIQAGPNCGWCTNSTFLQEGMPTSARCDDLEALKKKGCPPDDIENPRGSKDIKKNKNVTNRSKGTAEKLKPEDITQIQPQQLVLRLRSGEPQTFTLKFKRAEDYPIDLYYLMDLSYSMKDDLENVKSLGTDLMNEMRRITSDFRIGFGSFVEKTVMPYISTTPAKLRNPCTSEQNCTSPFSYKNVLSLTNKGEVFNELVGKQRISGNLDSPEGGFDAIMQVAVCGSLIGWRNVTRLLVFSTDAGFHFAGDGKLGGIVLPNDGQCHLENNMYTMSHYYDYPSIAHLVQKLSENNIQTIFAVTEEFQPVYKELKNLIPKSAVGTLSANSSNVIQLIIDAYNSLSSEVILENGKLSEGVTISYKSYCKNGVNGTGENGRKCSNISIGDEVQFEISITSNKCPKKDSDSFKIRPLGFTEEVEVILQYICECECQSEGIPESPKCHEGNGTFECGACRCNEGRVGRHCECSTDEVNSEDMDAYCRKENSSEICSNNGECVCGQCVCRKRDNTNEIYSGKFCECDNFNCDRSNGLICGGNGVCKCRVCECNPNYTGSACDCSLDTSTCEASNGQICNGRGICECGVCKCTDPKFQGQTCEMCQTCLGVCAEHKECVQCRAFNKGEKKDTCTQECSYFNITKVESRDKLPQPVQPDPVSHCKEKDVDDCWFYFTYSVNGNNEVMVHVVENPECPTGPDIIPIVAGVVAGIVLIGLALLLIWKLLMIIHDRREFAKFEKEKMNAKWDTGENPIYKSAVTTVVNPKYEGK

Tests used:
Integrin β1 (human) [1] = molecular target: Integrin β1 (human) (UniProt P05556); assay: co-immunoprecipitation after siRNA knockdown of E. Cadherin
Integrin β1 (human) [2] = molecular target: Integrin β1 (human) (UniProt P05556); assay: co-immunoprecipitation
Integrin β1 (human) [3] = molecular target: Integrin β1 (human) (UniProt P05556); assay: co-immunoprecipitation from Brij O10 lysate, Western blot

binding (Integrin β1 (human) [1]): binds | binding (Integrin β1 (human) [2]): binds | binding (Integrin β1 (human) [3]): binds
B1: Prostaglandin F2 Receptor Inhibitor (PTGFRN), expressed by cells (receptor, human, UniProt Q9P2B2 26-879, looked up)
chain: VPTATLVRVVGTELVIPCNVSDYDGPSEQNFDWSFSSLGSSFVELASTWEVGFPAQLYQERLQRGEILLRRTANDAVELHIKNVQPSDQGHYKCSTPSTDATVQGNYEDTVQVKVLADSLHVGPSARPPPSLSLREGEPFELRCTAASASPLHTHLALLWEVHRGPARRSVLALTHEGRFHPGLGYEQRYHSGDVRLDTVGSDAYRLSVSRALSADQGSYRCIVSEWIAEQGNWQEIQEKAVEVATVVIQPSVLRAAVPKNVSVAEGKELDLTCNITTDRADDVRPEVTWSFSRMPDSTLPGSRVLARLDRDSLVHSSPHVALSHVDARSYHLLVRDVSKENSGYYYCHVSLWAPGHNRSWHKVAEAVSSPAGVGVTWLEPDYQVYLNASKVPGFADDPTELACRVVDTKSGEANVRFTVSWYYRMNRRSDNVVTSELLAVMDGDWTLKYGERSKQRAQDGDFIFSKEHTDTFNFRIQRTTEEDRGNYYCVVSAWTKQRNNSWVKSKDVFSKPVNIFWALEDSVLVVKARQPKPFFAAGNTFEMTCKVSSKNIKSPRYSVLIMAEKPVGDLSSPNETKYIISLDQDSVVKLENWTDASRVDGVVLEKVQEDEFRYRMYQTQVSDAGLYRCMVTAWSPVRGSLWREAATSLSNPIEIDFQTSGPIFNASVHSDTPSVIRGDLIKLFCIITVEGAALDPDDMAFDVSWFAVHSFGLDKAPVLLSSLDRKGIVTTSRRDWKSDLSLERVSVLEFLLQVHGSEDQDFGNYYCSVTPWVKSPTGSWQKEAEIHSKPVFITVKMDVLNAFKYPLLIGVGLSTVIGLLSCLIGYCSSHWCCKKEVQETRRERRRLMSMEMD
